Measurements: the supplement of paper PMC10849652
This is one part of the list.

By UniProt entry, the sequences of proteins in these tests, tags left out. Where a name states a change or a piece, a line headed by the entry shows the natural chain unless it says otherwise.
UniProt P04818: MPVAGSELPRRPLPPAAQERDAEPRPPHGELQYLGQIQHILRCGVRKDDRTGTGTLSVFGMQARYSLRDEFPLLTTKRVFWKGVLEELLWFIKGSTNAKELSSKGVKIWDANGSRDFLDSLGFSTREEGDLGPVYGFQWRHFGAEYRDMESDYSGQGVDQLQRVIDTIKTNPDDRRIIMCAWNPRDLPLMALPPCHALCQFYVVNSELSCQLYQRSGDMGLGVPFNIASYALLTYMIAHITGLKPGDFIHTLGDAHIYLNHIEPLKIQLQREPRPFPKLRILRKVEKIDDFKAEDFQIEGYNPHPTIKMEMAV
UniProt Q96RT7, whole entry, looked up: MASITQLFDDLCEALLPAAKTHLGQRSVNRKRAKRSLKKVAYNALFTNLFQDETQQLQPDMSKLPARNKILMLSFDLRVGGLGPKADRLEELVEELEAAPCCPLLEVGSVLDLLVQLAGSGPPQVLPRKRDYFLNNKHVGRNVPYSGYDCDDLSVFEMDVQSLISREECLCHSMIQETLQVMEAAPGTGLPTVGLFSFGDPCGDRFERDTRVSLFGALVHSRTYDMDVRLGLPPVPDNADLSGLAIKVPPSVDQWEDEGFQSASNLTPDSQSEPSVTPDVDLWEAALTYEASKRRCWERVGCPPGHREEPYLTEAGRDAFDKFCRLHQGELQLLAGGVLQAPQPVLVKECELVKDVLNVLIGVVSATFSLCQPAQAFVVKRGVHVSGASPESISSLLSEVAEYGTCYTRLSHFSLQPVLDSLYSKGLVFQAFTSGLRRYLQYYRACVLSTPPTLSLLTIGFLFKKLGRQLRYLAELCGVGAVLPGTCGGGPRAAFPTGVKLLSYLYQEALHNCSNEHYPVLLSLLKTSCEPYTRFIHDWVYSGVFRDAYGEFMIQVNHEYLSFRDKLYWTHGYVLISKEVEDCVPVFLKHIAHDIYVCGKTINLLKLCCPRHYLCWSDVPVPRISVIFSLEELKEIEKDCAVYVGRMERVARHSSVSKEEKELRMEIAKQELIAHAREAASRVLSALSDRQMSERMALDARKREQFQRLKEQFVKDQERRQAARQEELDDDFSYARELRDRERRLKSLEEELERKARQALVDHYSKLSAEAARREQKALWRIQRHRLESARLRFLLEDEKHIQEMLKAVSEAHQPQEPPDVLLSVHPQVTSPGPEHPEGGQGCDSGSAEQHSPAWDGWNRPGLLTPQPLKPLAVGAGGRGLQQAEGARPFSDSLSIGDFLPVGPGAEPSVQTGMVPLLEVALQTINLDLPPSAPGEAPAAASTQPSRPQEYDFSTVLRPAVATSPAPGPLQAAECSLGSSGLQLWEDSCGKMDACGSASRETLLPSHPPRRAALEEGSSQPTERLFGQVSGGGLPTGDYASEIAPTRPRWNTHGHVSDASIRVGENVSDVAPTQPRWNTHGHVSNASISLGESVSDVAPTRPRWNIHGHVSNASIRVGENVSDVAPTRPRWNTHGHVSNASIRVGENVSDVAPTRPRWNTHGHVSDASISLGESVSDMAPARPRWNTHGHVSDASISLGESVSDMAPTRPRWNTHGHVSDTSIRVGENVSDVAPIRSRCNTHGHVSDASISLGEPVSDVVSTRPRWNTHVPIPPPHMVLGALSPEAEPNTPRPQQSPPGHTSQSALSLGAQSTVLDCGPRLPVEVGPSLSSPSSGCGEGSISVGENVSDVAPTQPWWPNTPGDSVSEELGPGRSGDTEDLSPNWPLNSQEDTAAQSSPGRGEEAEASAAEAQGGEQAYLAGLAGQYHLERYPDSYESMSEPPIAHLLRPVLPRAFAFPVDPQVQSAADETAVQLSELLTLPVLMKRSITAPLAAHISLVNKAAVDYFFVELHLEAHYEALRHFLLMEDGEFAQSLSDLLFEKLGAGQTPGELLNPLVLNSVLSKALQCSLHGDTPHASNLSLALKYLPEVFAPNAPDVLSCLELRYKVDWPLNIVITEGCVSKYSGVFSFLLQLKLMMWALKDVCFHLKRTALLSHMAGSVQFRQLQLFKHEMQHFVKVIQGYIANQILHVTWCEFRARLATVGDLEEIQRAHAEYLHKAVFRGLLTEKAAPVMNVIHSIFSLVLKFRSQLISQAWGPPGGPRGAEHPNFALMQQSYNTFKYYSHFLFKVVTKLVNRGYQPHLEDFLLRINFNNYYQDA
UniProt Q8NBS9: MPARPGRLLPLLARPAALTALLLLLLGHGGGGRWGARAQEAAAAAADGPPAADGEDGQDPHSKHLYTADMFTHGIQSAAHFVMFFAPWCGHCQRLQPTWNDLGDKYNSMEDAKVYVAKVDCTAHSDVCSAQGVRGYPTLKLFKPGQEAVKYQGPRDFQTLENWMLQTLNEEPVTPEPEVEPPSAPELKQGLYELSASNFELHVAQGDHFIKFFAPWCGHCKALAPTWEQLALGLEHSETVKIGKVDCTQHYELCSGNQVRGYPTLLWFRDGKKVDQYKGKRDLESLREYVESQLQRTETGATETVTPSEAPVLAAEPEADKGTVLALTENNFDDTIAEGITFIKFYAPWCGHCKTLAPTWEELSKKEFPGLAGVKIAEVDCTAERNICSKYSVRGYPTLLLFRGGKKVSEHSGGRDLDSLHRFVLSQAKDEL
UniProt Q04323: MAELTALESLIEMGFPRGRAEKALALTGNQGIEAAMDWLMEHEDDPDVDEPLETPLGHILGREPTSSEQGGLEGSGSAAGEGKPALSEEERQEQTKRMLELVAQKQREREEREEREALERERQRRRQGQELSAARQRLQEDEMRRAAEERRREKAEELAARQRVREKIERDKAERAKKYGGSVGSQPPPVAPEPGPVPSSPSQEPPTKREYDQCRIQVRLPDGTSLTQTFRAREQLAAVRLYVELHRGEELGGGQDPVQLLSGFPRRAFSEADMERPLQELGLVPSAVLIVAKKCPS
UniProt P51668: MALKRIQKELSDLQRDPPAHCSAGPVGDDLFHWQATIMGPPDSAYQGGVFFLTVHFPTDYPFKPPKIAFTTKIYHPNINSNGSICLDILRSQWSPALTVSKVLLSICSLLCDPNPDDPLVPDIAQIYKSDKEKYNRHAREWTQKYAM
UniProt Q16222: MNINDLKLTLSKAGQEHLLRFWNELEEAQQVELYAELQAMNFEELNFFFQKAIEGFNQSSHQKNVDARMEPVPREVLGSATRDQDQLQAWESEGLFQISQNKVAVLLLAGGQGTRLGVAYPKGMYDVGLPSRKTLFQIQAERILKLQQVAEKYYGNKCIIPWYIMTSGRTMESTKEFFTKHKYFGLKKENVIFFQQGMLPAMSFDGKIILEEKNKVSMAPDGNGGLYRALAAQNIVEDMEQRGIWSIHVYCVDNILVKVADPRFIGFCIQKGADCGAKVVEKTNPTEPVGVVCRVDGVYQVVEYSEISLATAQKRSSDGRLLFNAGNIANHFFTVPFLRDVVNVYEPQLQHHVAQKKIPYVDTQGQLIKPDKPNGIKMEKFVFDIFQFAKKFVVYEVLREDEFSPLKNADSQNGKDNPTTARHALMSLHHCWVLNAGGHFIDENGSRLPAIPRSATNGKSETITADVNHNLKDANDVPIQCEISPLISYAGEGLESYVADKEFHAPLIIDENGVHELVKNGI
UniProt Q9BQE3, whole entry, looked up: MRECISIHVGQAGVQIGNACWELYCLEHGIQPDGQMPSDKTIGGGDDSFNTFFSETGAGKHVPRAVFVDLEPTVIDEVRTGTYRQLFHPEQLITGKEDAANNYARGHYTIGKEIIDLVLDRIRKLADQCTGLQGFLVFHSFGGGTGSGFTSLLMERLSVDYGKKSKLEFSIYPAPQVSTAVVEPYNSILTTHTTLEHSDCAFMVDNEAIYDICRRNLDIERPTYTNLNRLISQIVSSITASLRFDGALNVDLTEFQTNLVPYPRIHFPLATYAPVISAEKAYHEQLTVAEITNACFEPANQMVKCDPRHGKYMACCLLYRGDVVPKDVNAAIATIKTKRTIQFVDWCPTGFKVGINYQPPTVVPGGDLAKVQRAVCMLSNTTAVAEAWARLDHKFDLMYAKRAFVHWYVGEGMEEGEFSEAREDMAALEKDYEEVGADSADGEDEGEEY
UniProt P04350, whole entry, looked up: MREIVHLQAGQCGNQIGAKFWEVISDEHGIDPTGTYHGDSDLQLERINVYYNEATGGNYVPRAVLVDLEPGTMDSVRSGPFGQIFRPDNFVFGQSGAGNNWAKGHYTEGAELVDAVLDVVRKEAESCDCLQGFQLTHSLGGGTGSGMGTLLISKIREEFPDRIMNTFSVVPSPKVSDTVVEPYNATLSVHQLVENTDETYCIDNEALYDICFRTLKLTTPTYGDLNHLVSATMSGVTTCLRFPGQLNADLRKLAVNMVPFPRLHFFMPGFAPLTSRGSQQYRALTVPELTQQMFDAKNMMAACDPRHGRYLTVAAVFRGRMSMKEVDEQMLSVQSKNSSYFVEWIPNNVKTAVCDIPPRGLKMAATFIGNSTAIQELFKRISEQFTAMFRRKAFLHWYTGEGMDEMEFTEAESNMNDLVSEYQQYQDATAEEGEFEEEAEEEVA
UniProt Q7Z7E8: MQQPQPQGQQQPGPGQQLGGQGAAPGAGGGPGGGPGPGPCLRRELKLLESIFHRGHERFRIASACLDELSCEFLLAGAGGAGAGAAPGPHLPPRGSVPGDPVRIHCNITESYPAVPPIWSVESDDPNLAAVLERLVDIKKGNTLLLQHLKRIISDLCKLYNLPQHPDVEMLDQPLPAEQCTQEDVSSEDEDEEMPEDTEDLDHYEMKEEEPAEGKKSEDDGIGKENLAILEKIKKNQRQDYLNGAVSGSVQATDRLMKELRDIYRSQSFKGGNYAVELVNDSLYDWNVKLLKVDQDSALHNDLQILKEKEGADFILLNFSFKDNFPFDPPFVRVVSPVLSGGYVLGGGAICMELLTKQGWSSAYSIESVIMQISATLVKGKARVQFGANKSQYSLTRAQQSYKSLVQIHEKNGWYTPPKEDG
UniProt P0CG48, whole entry, looked up: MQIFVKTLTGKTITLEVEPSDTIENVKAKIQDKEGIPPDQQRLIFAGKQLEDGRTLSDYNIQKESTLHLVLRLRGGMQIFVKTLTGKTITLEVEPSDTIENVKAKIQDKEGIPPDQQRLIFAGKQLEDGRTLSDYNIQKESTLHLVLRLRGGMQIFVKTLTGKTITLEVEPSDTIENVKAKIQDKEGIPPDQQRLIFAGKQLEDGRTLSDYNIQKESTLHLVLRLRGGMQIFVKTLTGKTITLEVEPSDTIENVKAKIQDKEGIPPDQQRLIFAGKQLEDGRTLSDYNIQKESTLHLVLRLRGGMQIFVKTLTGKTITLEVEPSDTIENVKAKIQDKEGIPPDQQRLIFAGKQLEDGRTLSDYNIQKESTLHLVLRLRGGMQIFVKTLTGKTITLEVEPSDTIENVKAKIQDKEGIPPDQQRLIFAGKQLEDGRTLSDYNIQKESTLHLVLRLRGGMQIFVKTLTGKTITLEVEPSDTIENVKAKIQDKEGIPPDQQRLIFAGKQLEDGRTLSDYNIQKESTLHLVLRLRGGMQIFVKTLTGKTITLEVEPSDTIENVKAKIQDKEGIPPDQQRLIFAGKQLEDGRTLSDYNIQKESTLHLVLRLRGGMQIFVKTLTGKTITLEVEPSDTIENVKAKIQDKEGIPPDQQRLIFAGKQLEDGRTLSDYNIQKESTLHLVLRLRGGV
UniProt Q5JXB2: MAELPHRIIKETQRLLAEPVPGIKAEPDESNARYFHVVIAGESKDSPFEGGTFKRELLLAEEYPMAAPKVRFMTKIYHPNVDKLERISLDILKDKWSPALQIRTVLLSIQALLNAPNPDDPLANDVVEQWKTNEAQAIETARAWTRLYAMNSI
UniProt Q3KQV9: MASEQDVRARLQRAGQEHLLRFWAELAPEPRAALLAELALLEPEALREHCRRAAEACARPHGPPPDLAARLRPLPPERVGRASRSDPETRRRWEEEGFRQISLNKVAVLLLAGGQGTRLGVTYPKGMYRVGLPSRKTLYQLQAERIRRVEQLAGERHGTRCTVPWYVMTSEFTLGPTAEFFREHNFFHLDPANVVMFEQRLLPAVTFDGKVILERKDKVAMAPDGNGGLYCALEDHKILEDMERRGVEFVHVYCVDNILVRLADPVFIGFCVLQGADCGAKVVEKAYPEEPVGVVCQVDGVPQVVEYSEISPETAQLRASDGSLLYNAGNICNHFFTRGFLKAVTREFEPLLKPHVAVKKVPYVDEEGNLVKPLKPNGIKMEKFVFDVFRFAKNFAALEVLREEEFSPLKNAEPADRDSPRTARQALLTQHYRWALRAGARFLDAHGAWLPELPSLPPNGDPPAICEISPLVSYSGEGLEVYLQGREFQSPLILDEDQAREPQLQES

Assays:
Test in all cases: log2 fold change, soluble protein after heating vs DMSO (PISA); higher = thermal stabilisation; K562 lysate, 10 uM; active = over 0.2 and 3.5 SD of the protein, either way, in both replicates (recomputed)
lapatinib = compound: CS(=O)(=O)CCNCc1ccc(-c2ccc3ncnc(Nc4ccc(OCc5cccc(F)c5)c(Cl)c4)c3c2)o1 [lapatinib]
How it was run: (§1)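 K562 pellets were dounce-homogenised in PBS pH 7.4 with 1 mM MgCl2, and the crude extract at 1 mg/mL protein was treated with 10 μM compound for 30 min. Aliquots were heated for 3 min across 48°C-58°C, pooled, and brought to 0.5% NP-40 at 4°C; soluble protein was the supernatant after 21,000xg for 90 min. Soluble protein was quantified by TMTpro 16plex LC-MS/MS with channel sums equalised, and reported as log2 fold change in thermal stability against DMSO controls, with values from duplicates.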

pictilisib = compound: CS(=O)(=O)N1CCN(Cc2cc3nc(-c4cccc5[nH]ncc45)nc(N4CCOCC4)c3s2)CC1 [pictilisib]
How it was run: as §1

crizotinib = compound: C[C@@H](Oc1cc(-c2cnn(C3CCNCC3)c2)cnc1N)c1c(Cl)ccc(F)c1Cl [crizotinib]
How it was run: as §1

[1] = compound: C[C@H](C1=CC=C(C=C1)C(=O)NC2=C3C=CNC3=NC=C2)N
How it was run: as §1

duvelisib = compound: C[C@H](Nc1ncnc2nc[nH]c12)c1cc2cccc(Cl)c2c(=O)n1-c1ccccc1 [duvelisib]
How it was run: as §1

gandotinib = compound: Cc1cc(Nc2cc(CN3CCOCC3)c3nc(C)c(Cc4ccc(Cl)cc4F)n3n2)n[nH]1 [gandotinib]
How it was run: as §1

tozasertib = compound: Cc1cc(Nc2cc(N3CCN(C)CC3)nc(Sc3ccc(NC(=O)C4CC4)cc3)n2)n[nH]1 [tozasertib]
How it was run: as §1

doramapimod = compound: Cc1ccc(-n2nc(C(C)(C)C)cc2NC(=O)Nc2ccc(OCCN3CCOCC3)c3ccccc23)cc1 [doramapimod]
How it was run: as §1

bafetinib = compound: Cc1ccc(NC(=O)c2ccc(CN3CC[C@H](N(C)C)C3)c(C(F)(F)F)c2)cc1Nc1nccc(-c2cncnc2)n1 [bafetinib]
How it was run: as §1

[2] = compound: Cc1cccc(CC(=O)N2CCc3c2ccc(-c2cn(C)c4ncnc(N)c24)c3F)n1
How it was run: as §1

nilotinib = compound: Cc1cn(-c2cc(NC(=O)c3ccc(C)c(Nc4nccc(-c5cccnc5)n4)c3)cc(C(F)(F)F)c2)cn1 [nilotinib]
How it was run: as §1

[3] = compound: Cc1nc(Nc2n[nH]c3c2CN(C(=O)N[C@H](CN(C)C)c2ccccc2)C3(C)C)c2sccc2n1
How it was run: as §1

dasatinib = compound: Cc1nc(Nc2ncc(C(=O)Nc3c(C)cccc3Cl)s2)cc(N2CCN(CCO)CC2)n1 [dasatinib]
How it was run: as §1

[4] = compound: Cc1ncc(-c2ccnc(Nc3ccc(S(C)(=O)=O)cc3)n2)n1C(C)C
How it was run: as §1

[5] = compound: Cn1cc(-c2ccc3c(c2)CCN3C(=O)Cc2cccc(C(F)(F)F)c2)c2c(N)ncnc21
How it was run: as §1

quisinostat = compound: Cn1cc(CNCC2CCN(c3ncc(C(=O)NO)cn3)CC2)c2ccccc21 [quisinostat]
How it was run: as §1

tipifarnib = compound: Cn1cncc1[C@@](N)(c1ccc(Cl)cc1)c1ccc2c(c1)c(-c1cccc(Cl)c1)cc(=O)n2C [tipifarnib]
How it was run: as §1

[6] = compound: NC(=O)Nc1cc(-c2cccc(F)c2)sc1C(=O)N[C@H]1CCCNC1
How it was run: as §1

[7] = compound: NC(=O)c1cnc(N[C@@H]2CCCC[C@@H]2N)nc1Nc1cccc(-n2nccn2)c1
How it was run: as §1

[8] = compound: NC1(c2ccc(-c3nc4ccn5c(=O)[nH]nc5c4cc3-c3ccccc3)cc2)CCC1
How it was run: as §1

Measured: log2 fold change

TYMS (UniProt P04818)
inactive: lapatinib -0.007 | pictilisib -0.017 | crizotinib 0.002 | [1] 0.003 | duvelisib 0.018 | gandotinib 0.058 | tozasertib 0.011 | doramapimod -0.019 | bafetinib -0.005 | [2] -0.017 | nilotinib 0.012 | [3] -0.032 | dasatinib -0.023 | [4] -0.015 | [5] 0.01 | quisinostat -0.001 | tipifarnib -0.02 | [6] 0.034 | [7] 0.015 | [8] -0.032

TUBGCP6 (UniProt Q96RT7)
inactive: lapatinib -0.047 | pictilisib -0.096 | crizotinib 0.036 | [1] -0.175 | duvelisib -0.115 | gandotinib 0.393 | tozasertib 0.102 | doramapimod -0.066 | bafetinib -0.028 | [2] 0.367 | nilotinib 0.065 | [3] 0.036 | dasatinib -0.131 | [4] 0.006 | [5] 0.064 | quisinostat 0.03 | tipifarnib -0.099 | [6] 0.093 | [7] 0.046 | [8] 0.026

TUFM (UniProt P49411)
inactive: lapatinib -0.006 | pictilisib 0.025 | crizotinib -0.038 | [1] 0.05 | duvelisib 0.004 | gandotinib -0.073 | tozasertib 0.009 | doramapimod 0.012 | bafetinib -0.016 | [2] -0.055 | nilotinib 0.024 | [3] -0.016 | dasatinib -0.012 | [4] -0.013 | [5] 0.054 | quisinostat -0.022 | tipifarnib 0.018 | [6] 0.087 | [7] 0.031 | [8] -0.023

TXNDC5 (UniProt Q8NBS9)
inactive: lapatinib -0.02 | pictilisib 0 | crizotinib 0.026 | [1] 0.005 | duvelisib 0.016 | gandotinib 0.034 | tozasertib 0.012 | doramapimod -0.004 | bafetinib 0.055 | [2] -0.021 | nilotinib 0.025 | [3] -0.01 | dasatinib 0.021 | [4] -0.004 | [5] -0.005 | quisinostat 0.01 | tipifarnib 0.008 | [6] -0.022 | [7] -0.028 | [8] 0.015

UBXN1 (UniProt Q04323)
inactive: lapatinib 0.013 | pictilisib 0.003 | crizotinib -0.03 | [1] -0.049 | duvelisib 0.011 | gandotinib 0.024 | tozasertib -0.006 | doramapimod 0.045 | bafetinib -0.013 | [2] 0.018 | nilotinib 0.005 | [3] -0.017 | dasatinib -0.014 | [4] 0.009 | [5] 0.018 | quisinostat -0.1 | tipifarnib 0.015 | [6] -0.017 | [7] 0.003 | [8] 0.025

UBE2D1 (UniProt P51668)
inactive: lapatinib 0.052 | pictilisib 0.043 | crizotinib 0.01 | [1] -0.012 | duvelisib 0.031 | gandotinib -0.047 | tozasertib 0.081 | doramapimod 0.038 | bafetinib -0.058 | [2] -0.033 | [3] -0.093 | dasatinib -0.1 | [4] -0.064 | [5] 0.033 | quisinostat 0.108 | tipifarnib -0.065 | [6] -0.06 | [7] -0.066 | [8] 0.029
active: nilotinib 0.259

UAP1 (UniProt Q16222)
inactive: lapatinib -0.001 | pictilisib 0.014 | crizotinib -0.016 | [1] -0.017 | duvelisib -0.001 | gandotinib -0.029 | tozasertib -0.014 | doramapimod 0.008 | bafetinib -0.009 | [2] 0.002 | nilotinib 0.017 | [3] -0.002 | dasatinib -0.01 | [4] -0.018 | [5] -0.015 | quisinostat 0.015 | tipifarnib 0.005 | [6] 0.023 | [7] 0.004 | [8] 0.005

TUBA1C (UniProt Q9BQE3)
inactive: lapatinib 0.004 | pictilisib -0.057 | crizotinib -0.045 | [1] -0.013 | duvelisib -0.019 | gandotinib 0.062 | tozasertib -0.008 | doramapimod -0.026 | bafetinib 0.005 | [2] 0.021 | nilotinib -0.001 | [3] 0.021 | dasatinib -0.017 | [4] 0.006 | [5] 0.018 | quisinostat -0.038 | tipifarnib -0.007 | [6] 0.014 | [7] -0.006 | [8] -0.052

TUBB4A (UniProt P04350)
inactive: lapatinib -0.095 | pictilisib -0.055 | crizotinib -0.001 | [1] -0.081 | duvelisib 0.059 | gandotinib 0.051 | tozasertib -0.138 | doramapimod -0.025 | bafetinib -0.026 | [2] -0.01 | nilotinib 0.027 | [3] -0.026 | dasatinib 0.003 | [4] -0.023 | [5] 0.067 | quisinostat -0.196 | tipifarnib 0.027 | [6] 0.085 | [7] 0.011 | [8] 0.023

UBTF (UniProt P17480)
inactive: lapatinib -0.013 | pictilisib -0.024 | crizotinib -0.037 | [1] 0.071 | duvelisib -0.015 | gandotinib -0.103 | tozasertib 0.004 | doramapimod -0.008 | bafetinib -0.039 | [2] -0.011 | nilotinib 0.001 | [3] 0.031 | dasatinib -0.021 | [4] -0.039 | [5] 0.004 | quisinostat 0 | tipifarnib 0.015 | [6] 0.044 | [7] -0.01 | [8] -0.042

TUT1 (UniProt Q9H6E5)
inactive: lapatinib -0.01 | pictilisib -0.072 | crizotinib -0.168 | [1] -0.066 | duvelisib 0.016 | gandotinib -0.021 | tozasertib 0.046 | doramapimod -0.071 | bafetinib -0.037 | [2] 0.069 | nilotinib -0.012 | [3] -0.038 | dasatinib -0.027 | [4] -0.006 | [5] -0.001 | quisinostat -0.045 | tipifarnib -0.045 | [6] 0.044 | [7] 0.004 | [8] -0.018

UBE2Q1 (UniProt Q7Z7E8)
inactive: lapatinib -0.003 | pictilisib 0.011 | crizotinib 0.016 | [1] -0.022 | duvelisib 0.025 | gandotinib 0.013 | tozasertib 0.006 | doramapimod 0.004 | bafetinib -0.064 | [2] 0.013 | nilotinib -0.017 | [3] -0.003 | dasatinib 0.014 | [4] 0.011 | [5] -0.019 | quisinostat 0.01 | tipifarnib 0.066 | [6] -0.052 | [7] -0.022 | [8] 0.001

UBC (UniProt P0CG48)
inactive: lapatinib 0.012 | pictilisib 0.015 | crizotinib -0.003 | [1] 0.197 | duvelisib -0.01 | gandotinib -0.058 | tozasertib 0.03 | doramapimod -0.008 | bafetinib -0.033 | [2] -0.079 | nilotinib 0.024 | [3] -0.005 | dasatinib -0.014 | [4] 0.088 | [5] -0.016 | quisinostat -0.032 | tipifarnib 0.013 | [6] 0.006 | [7] -0.025 | [8] 0.016

Taken from the entries so far (4 entries):
TUBGCP6 (UniProt Q96RT7)
inactive: lapatinib -0.047 | pictilisib -0.096 | crizotinib 0.036 | [1] -0.175 | duvelisib -0.115 | gandotinib 0.393 | tozasertib 0.102 | doramapimod -0.066 | bafetinib -0.028 | [2] 0.367 | nilotinib 0.065 | [3] 0.036 | dasatinib -0.131 | [4] 0.006 | [5] 0.064 | quisinostat 0.03 | tipifarnib -0.099 | [6] 0.093 | [7] 0.046 | [8] 0.026

TUFM (UniProt P49411)
inactive: lapatinib -0.006 | pictilisib 0.025 | crizotinib -0.038 | [1] 0.05 | duvelisib 0.004 | gandotinib -0.073 | tozasertib 0.009 | doramapimod 0.012 | bafetinib -0.016 | [2] -0.055 | nilotinib 0.024 | [3] -0.016 | dasatinib -0.012 | [4] -0.013 | [5] 0.054 | quisinostat -0.022 | tipifarnib 0.018 | [6] 0.087 | [7] 0.031 | [8] -0.023

TXNDC5 (UniProt Q8NBS9)
inactive: lapatinib -0.02 | pictilisib 0 | crizotinib 0.026 | [1] 0.005 | duvelisib 0.016 | gandotinib 0.034 | tozasertib 0.012 | doramapimod -0.004 | bafetinib 0.055 | [2] -0.021 | nilotinib 0.025 | [3] -0.01 | dasatinib 0.021 | [4] -0.004 | [5] -0.005 | quisinostat 0.01 | tipifarnib 0.008 | [6] -0.022 | [7] -0.028 | [8] 0.015

UBXN1 (UniProt Q04323)
inactive: lapatinib 0.013 | pictilisib 0.003 | crizotinib -0.03 | [1] -0.049 | duvelisib 0.011 | gandotinib 0.024 | tozasertib -0.006 | doramapimod 0.045 | bafetinib -0.013 | [2] 0.018 | nilotinib 0.005 | [3] -0.017 | dasatinib -0.014 | [4] 0.009 | [5] 0.018 | quisinostat -0.1 | tipifarnib 0.015 | [6] -0.017 | [7] 0.003 | [8] 0.025

Next part.

UBE2NL (UniProt Q5JXB2)
inactive: lapatinib -0.016 | pictilisib 0.022 | crizotinib 0.003 | [1] 0.035 | duvelisib 0.005 | gandotinib -0.002 | tozasertib 0.07 | doramapimod 0.008 | bafetinib -0.009 | [2] -0.03 | nilotinib 0.029 | [3] -0.012 | dasatinib -0.021 | [4] 0.02 | [5] -0.036 | quisinostat 0.007 | tipifarnib 0.054 | [6] -0.082 | [7] -0.013 | [8] 0.05

UAP1L1 (UniProt Q3KQV9)
inactive: lapatinib -0.035 | pictilisib 0.004 | crizotinib -0.007 | [1] 0.218 | duvelisib -0.191 | gandotinib -0.124 | tozasertib 0.093 | doramapimod 0.04 | bafetinib -0.033 | [2] -0.112 | nilotinib -0.01 | [3] -0.011 | dasatinib -0.058 | [4] 0.007 | [5] 0.023 | quisinostat 0.06 | tipifarnib 0.058 | [6] 0.039 | [7] -0.091 | [8] 0.115
